# PubChem BioAssay AID651640 (Broad Institute, 2012)
# “And” between values parts separate entries of the source, which are not always exact repeats. Equal values may be shown once. About 6,000 (1.7%) of roughly 350,000 compounds were called active. This list was built around the results that the source calls inconclusive (neither active nor inactive); the mix of calls is not that of the screen. Rule as the data show it: active = CPE inhibition above about 20% (passing the limit was not always enough); inconclusive = no clear call, values can overlap the other calls; tested in BHK-21 cells.
# Experiment: protection of cells from dengue 2 killing – plate reader, single concentration, primary screen (AID 651640);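 also: 0% = median of neutral control wells and 100% = median of positive control wells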
# Details: DENV2-infected cells, cytopathic effect rescue, at 9.99 µM, stronger effect = higher value
row,Compound,CPE inhibition
1,C[C@H](CO)N1C[C@H](C)[C@@H](CN(C)C(=O)Nc2ccc(F)cc2)Oc2ncc(C#CC3CC3)cc2C1=O,inconclusive: 21.7%
2,CC1(C)CC(=O)C=C(c2ccc(COC(=O)C(c3ccccc3)c3ccccc3)cc2)C1=O,active: 54.1%
3,CN(C)CCCNC(=O)C[C@@H]1C=C[C@@H](NC(=O)Cc2cccnc2)[C@@H](CO)O1,inactive: -13.7%
4,CN1CCN(c2cccc3c2S(=O)(=O)N[C@H](Cc2ccccc2)CO3)CC1,inconclusive: 31.1%
5,O=C(Cn1ccc(NC(=O)OCc2ccccc2)nc1=O)NCCc1ccccn1,inconclusive: 20.5%
6,CN1C(=O)c2cc(NC(=O)c3ccc(C#N)cc3)ccc2OC[C@H]2O[C@@H](CC(=O)NC3Cc4ccccc4C3)CC[C@@H]21,active: 75.4%
7,COc1cc(CNC2CCCc3ccccc32)cc(OC)c1OC (centres undefined),inconclusive: 40.6%
8,CCOC(=O)c1ccc(NC(=O)CNNC(=O)COc2ccccc2C)cc1,inactive: -5.94%
9,O=C(C1CCC1)N1C[C@@H]2N[C@H](C1)C2c1ccc(-c2ccccc2F)cc1 (some centres undefined),inconclusive: 30.6%
10,C[C@@H]1CN([C@@H](C)CO)C(=O)c2cc(NC(=O)Nc3ccc(F)cc3)ccc2O[C@@H](C)CCCCO[C@H]1CN(C)S(=O)(=O)c1ccccc1,active: 124%
11,COc1ccc(CN(C)C[C@@H]2OCCCC[C@@H](C)Oc3ccc(NC(=O)Nc4ccc5c(c4)OCO5)cc3C(=O)N([C@@H](C)CO)C[C@H]2C)cc1,inconclusive: 26.5%
12,Cn1c2ccc(Br)cc2c2nnc(SCC(=O)O)nc21,inconclusive: 29.9%
13,COc1ccc(S(=O)(=O)N2CCCCCC2)cc1C(=O)N(C)CC(=O)Nc1ccccc1Br,inconclusive: 30.4%
14,COc1ccc(NC2CCCN(C(=O)c3ccc4[nH]c(C)c(C)c4c3)C2)cc1 (centres undefined),inconclusive: 23.4%
15,COc1ccc2c3c(n(C)c2c1)[C@H](CO)N(C(=O)C1CCCCC1)CC31CCN(C)CC1,inconclusive: 25.6%
16,O=C1Cc2ccccc2C(=O)N1c1cccc(Cl)c1,inactive: 2.34%
17,COc1cccc(S(=O)(=O)N2C[C@@H]3N[C@H](C2)C3c2ccc(-c3cccc(C)c3)cc2)c1 (some centres undefined),inactive: -12.1% and inactive: 2.77%
18,COc1ccc2c3c([nH]c2c1)[C@@H](CO)N(C(=O)CN1CCOCC1)CC31CN(Cc2ccccc2)C1,active: 39.7%
19,CC(=O)N1CCN(C(=O)c2cc(=O)c3ccccc3o2)CC1,inconclusive: 34.4%
20,O=C(C[C@H]1C[C@@H]2c3cc(NC(=O)c4cccnc4)ccc3O[C@@H]2[C@H](CO)O1)NCC1CC1,inconclusive: 29.3%
21,CCC(=O)N1CC2(C1)[C@H](c1ccccc1)[C@@H](CO)N2C(=O)NC(C)C,active: 29.1%
22,Cc1noc(C)c1NC(=O)N(C)C[C@@H]1OCCCC[C@H](C)Oc2ccc(N(C)C)cc2C(=O)N([C@H](C)CO)C[C@H]1C,inactive: 4.89%
23,Fc1ccc(-n2nnc(-c3nccs3)n2)cc1,inconclusive: 33.5%
24,O=C1C(c2ccccc2)c2ccccc2N1Cc1ccccc1 (centres undefined),inactive: -5.54%
25,CCOC(=O)C(CC1=CS(=O)(=O)c2ccc(Cl)cc21)(NC(C)=O)C(=O)OCC,inconclusive: 30.6%

# Another view of 22 compounds above:
row	Compound	CPE inhibition
1	C[C@H](CO)N1C[C@H](C)[C@@H](CN(C)C(=O)Nc2ccc(F)cc2)Oc2ncc(C#CC3CC3)cc2C1=O	inconclusive: 21.7%
2	CC1(C)CC(=O)C=C(c2ccc(COC(=O)C(c3ccccc3)c3ccccc3)cc2)C1=O	active: 54.1%
3	CN(C)CCCNC(=O)C[C@@H]1C=C[C@@H](NC(=O)Cc2cccnc2)[C@@H](CO)O1	inactive: -13.7%
4	CN1CCN(c2cccc3c2S(=O)(=O)N[C@H](Cc2ccccc2)CO3)CC1	inconclusive: 31.1%
5	O=C(Cn1ccc(NC(=O)OCc2ccccc2)nc1=O)NCCc1ccccn1	inconclusive: 20.5%
6	CN1C(=O)c2cc(NC(=O)c3ccc(C#N)cc3)ccc2OC[C@H]2O[C@@H](CC(=O)NC3Cc4ccccc4C3)CC[C@@H]21	active: 75.4%
7	COc1cc(CNC2CCCc3ccccc32)cc(OC)c1OC (centres undefined)	inconclusive: 40.6%
8	CCOC(=O)c1ccc(NC(=O)CNNC(=O)COc2ccccc2C)cc1	inactive: -5.94%
9	O=C(C1CCC1)N1C[C@@H]2N[C@H](C1)C2c1ccc(-c2ccccc2F)cc1 (some centres undefined)	inconclusive: 30.6%
11	COc1ccc(CN(C)C[C@@H]2OCCCC[C@@H](C)Oc3ccc(NC(=O)Nc4ccc5c(c4)OCO5)cc3C(=O)N([C@@H](C)CO)C[C@H]2C)cc1	inconclusive: 26.5%
12	Cn1c2ccc(Br)cc2c2nnc(SCC(=O)O)nc21	inconclusive: 29.9%
14	COc1ccc(NC2CCCN(C(=O)c3ccc4[nH]c(C)c(C)c4c3)C2)cc1 (centres undefined)	inconclusive: 23.4%
15	COc1ccc2c3c(n(C)c2c1)[C@H](CO)N(C(=O)C1CCCCC1)CC31CCN(C)CC1	inconclusive: 25.6%
17	COc1cccc(S(=O)(=O)N2C[C@@H]3N[C@H](C2)C3c2ccc(-c3cccc(C)c3)cc2)c1 (some centres undefined)	inactive: -12.1% and inactive: 2.77%
18	COc1ccc2c3c([nH]c2c1)[C@@H](CO)N(C(=O)CN1CCOCC1)CC31CN(Cc2ccccc2)C1	active: 39.7%
19	CC(=O)N1CCN(C(=O)c2cc(=O)c3ccccc3o2)CC1	inconclusive: 34.4%
20	O=C(C[C@H]1C[C@@H]2c3cc(NC(=O)c4cccnc4)ccc3O[C@@H]2[C@H](CO)O1)NCC1CC1	inconclusive: 29.3%
21	CCC(=O)N1CC2(C1)[C@H](c1ccccc1)[C@@H](CO)N2C(=O)NC(C)C	active: 29.1%
22	Cc1noc(C)c1NC(=O)N(C)C[C@@H]1OCCCC[C@H](C)Oc2ccc(N(C)C)cc2C(=O)N([C@H](C)CO)C[C@H]1C	inactive: 4.89%
23	Fc1ccc(-n2nnc(-c3nccs3)n2)cc1	inconclusive: 33.5%
24	O=C1C(c2ccccc2)c2ccccc2N1Cc1ccccc1 (centres undefined)	inactive: -5.54%
25	CCOC(=O)C(CC1=CS(=O)(=O)c2ccc(Cl)cc21)(NC(C)=O)C(=O)OCC	inconclusive: 30.6%

# The list goes on:

row,Compound,CPE inhibition
1,CCCN[C@@H]1C(=O)N2C(C(=O)OCCC)=C(C)CS[C@H]12,active: 72.1%
2,CN(c1ccc(F)cc1)S(=O)(=O)c1ccc(Cl)c(C(=O)NCC2CCCO2)c1 (centres undefined),inactive: 7.64%
3,CCOc1cc(/C=C/c2cc(C(=O)O)c3ccccc3n2)ccc1OC,inconclusive: 21.2%
4,OCC1OCOC2C(CO)OCOC12 (centres undefined),active: 123%
5,O=S(=O)(c1ccccc1)N1CC2(C1)[C@H](c1ccccc1)[C@@H](CO)N2CC1CCOCC1,active: 35.6%
6,CCC(=O)N1CCCCN2[C@H](CO)[C@@H](c3ccc(-c4cccc(C#N)c4)cc3)[C@H]2C1,inactive: 4.37%
7,C[C@H]1CCCCO[C@H](CN(C)C(=O)NC2CCCCC2)[C@@H](C)CN([C@@H](C)CO)C(=O)c2cc(NS(=O)(=O)c3ccc(F)cc3)ccc2O1,active: 23.9%
8,O=C(c1ccccn1)N1C[C@H]2[C@@H](c3ccccc31)[C@H](CO)N2C(=O)CC1CC1,inconclusive: 43.5%
9,O=C(Nc1cccc(C(=O)O)c1)/C(=C\c1ccco1)NC(=O)c1ccccc1,active: 50.4%
10,Cc1ccc(CN(C)C(=O)c2cc(S(=O)(=O)N3CCOCC3)ccc2F)o1,inconclusive: 26.7%
11,Cc1ccc(S(=O)(=O)NNC2=NCCCCC2)cc1,inactive: 0.65%
12,Fc1ccccc1-c1nc(-c2ccc(-c3nn[nH]n3)cc2)no1,active: 20.1%
13,CC(=O)c1c(C)[nH]c(C(=O)OCC(=O)N(C)c2c(N)n(Cc3ccccc3)c(=O)[nH]c2=O)c1C,active: 143%
14,CN1CCN(C(=O)N(c2ccccc2)c2ccccc2)CC1,inconclusive: 28.4%
15,O=C(c1cnccn1)N1CC(=O)N2[C@H](C1)[C@@H](c1ccc(C#CCC3CCCC3)cc1)[C@@H]2CO,inconclusive: 26.2%
16,COCC(=O)N1CC2(C1)CN(C(=O)CN1CCOCC1)[C@@H](CO)c1c2c2ccc(OC)cc2n1C,inactive: 6.36%
17,COc1c2ccoc2nc2c(OC)c(OCC(OC(C)=O)C(C)(C)O)ccc12 (centres undefined),inconclusive: 58.7%
18,Cc1ccc(-c2cnc3c(c2)C(=O)N([C@@H](C)CO)C[C@@H](C)[C@@H](CN(C)C(=O)Cc2ccccc2)O3)cc1,inconclusive: 71.3%
19,CCCn1c(NC(=O)C2CCN(C(=O)c3ccccc3C)CC2)nc2ccccc21,inactive: 8.92%
20,C[C@@H]1CN([C@@H](C)CO)S(=O)(=O)c2ccc(C#Cc3ccccc3)cc2O[C@H]1CN(C)C(=O)CN(C)C,inconclusive: 22.2%
21,CN(C)CCCNC(=O)C[C@@H]1C=C[C@H](NS(=O)(=O)c2ccccc2)[C@H](CO)O1,inconclusive: 28.3%
22,Cc1ccccc1N1CC(C(=O)Nc2ccc3c(c2)OCO3)CC1=O (centres undefined),inconclusive: 20.8%
23,COc1ccc2nc(N3C(=O)CNC3=S)sc2c1,inactive: -3.68%
24,COc1cccc(NC(=O)N(C)C[C@@H]2Oc3cc(-c4ccccc4F)ccc3S(=O)(=O)N([C@H](C)CO)C[C@@H]2C)c1,inconclusive: 38.9%
25,O=C(Nc1ccc(F)cc1F)N1CCCN(c2ccc([N+](=O)[O-])cn2)CC1,inconclusive: 31.1%

row,Compound,CPE inhibition
1,O=C(CSc1nc2ccccc2[nH]1)Nc1ccc(N2CCOCC2)cc1,inconclusive: 21.6%
2,O=C(c1ccc[nH]1)N1O[C@@H]2C=C[C@H]1C2,active: 61.6%
3,CN1c2ccc(Br)cc2[C@H]2[C@H](CCN2C(=O)C2CCCCC2)[C@@H]1CO,inactive: -2.08%
4,CCN(CC(=O)Nc1ccc(NC(C)=O)cc1)C(=O)/C=C/c1c(C)nn(-c2ccc(F)cc2)c1Cl,inconclusive: 64.9%
5,CN(C(=O)c1cccc(NC(=O)Cc2ccc(NC(=O)C3CCN(S(=O)(=O)c4cccc([N+](=O)[O-])c4)CC3)cc2)c1)C1CC1,inconclusive: 52.9%
6,Cc1cccc(-n2nc(C)c3c(C(=O)O)cc(-c4cccs4)nc32)c1,inconclusive: 21%
7,C[C@H]1CN([C@@H](C)CO)C(=O)Cc2cc(NC(=O)NC3CCCCC3)ccc2O[C@@H]1CN(C)Cc1ccc(C(=O)Nc2ccccc2N)cc1,active: 32.4%
8,COc1ccc(NC(=O)N(C)C[C@@H]2Oc3c(NC(=O)c4ccc(-c5nccs5)cc4)cccc3C(=O)N([C@H](C)CO)C[C@H]2C)cc1,inconclusive: 21.2%
9,C[C@H]1CN([C@@H](C)CO)C(=O)c2cccc(NC(=O)Nc3cccc4ccccc34)c2O[C@H]1CN(C)CC1CCCCC1,inconclusive: 34.6%
10,C[C@@H]1CN([C@H](C)CO)C(=O)Cc2cc(NC(=O)Cc3ccccc3)ccc2O[C@@H]1CN(C)Cc1ccc(C(F)(F)F)cc1,inactive: -0.373%
11,COc1ccc(-c2csc3nc(C)n(-n4cccc4)c(=O)c23)cc1OC,inconclusive: 35.8%
12,CCN(CC(=O)Nc1ccc(OC)cc1)C(=O)CSCc1c(C)noc1C,active: 73.9%
13,O=C(C[C@@H]1CC[C@H](NC(=O)CC2CC2)[C@H](CO)O1)NCc1ccccc1,inconclusive: 25.7%
14,COc1ccc(CNC(=O)c2c(C)oc3c2C(=O)c2ccccc2C3=O)cc1,inactive: 5.3%
15,C[C@H](CO)N1C[C@H](C)[C@H](CN(C)CC2CCCCC2)OCc2cn(nn2)CCCC1=O,inconclusive: 33.9%
16,O=C(c1ccccc1)N1CC2(C1)[C@@H](c1ccccc1)[C@@H](CO)N2CC1CC1,active: 21.4%
17,CN(C)c1ccc2c(c1)[C@@H]1C[C@H](CC(=O)NCc3ccccc3)O[C@@H](CO)[C@@H]1O2,active: 20.7%
18,O=C(c1ccco1)N1CCN(C2c3ccccc3-c3ccccc32)CC1,active: 54.4%
19,CCc1c(-c2cccc(Cl)c2)ncn1Cc1cccc(-c2ccccc2)c1,active: 22.2%
20,COc1ccccc1NC(=O)Nc1ccc2c(c1)C(=O)N(C)C[C@@H](OC)[C@H](C)CN(C)[C@@H](C)CO2,inactive: 6.12%
21,Cc1ccc2c(Cl)c(C(=O)NC3CC3)sc2c1,inconclusive: 47.3%
22,COC(=O)[C@]12CCCCC=C1N(Cc1ccccc1)C(=O)[C@H](CC(=O)NCC13CC4CC(CC(C4)C1)C3)C2,inconclusive: 36.7%
23,CN(C)CCCNC(=O)CC1C[C@H](C(=O)N2CCOCC2)[C@@]2(CCC3CCCC3)c3[nH]c4ccccc4c3CCN2C1=O (some centres undefined),inconclusive: 39.3%
24,O=C(COC(=O)Cc1ccc(Cl)c(Cl)c1)NCc1ccco1,inconclusive: 22.5%
